# From PubChem BioAssay AID2098 (Broad Institute, 2009)
# The campaign covered roughly 300,000 compounds. About 2,300 (0.77%) were called active. Inconclusive results, whose numbers are uncertain, are shown with a selection of clear calls.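 How the source made its calls: active means more than half of replicate wells show activity change below -50%, luminescence cut by over half; inconclusive means some wells, but at most half, below -50%; inactive means no replicate well below -50%.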
# Assay: HSF1 inhibitors in luciferase reporter cells, primary screen, cell-based, NIH3T3, luminescence (AID 2098);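 further: luciferase reports HSF-1 transcriptional activity via heat shock element; 0% = median of DMSO wells and -100% = zero luminescence signal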
# Settings: NIH3T3-HGL HSE-luciferase, MG132-induced, luminescence 8 h; active compounds read low; screened at 7.5 µM (by protocol)
row,SMILES,"activity change, negative = inhibition"
1,COc1ccc(S(=O)(=O)N(C)c2ccc(C(=O)Nc3ccccc3C(=O)N3CCOCC3)cc2)cc1OC,inactive: -3.51%
2,CCN(CC(=O)Nc1c(F)cccc1F)C(=O)Cc1n[nH]c(=O)c2ccccc12,active: -71.5%
3,CCC(CO)Nc1ncnc2c1cnn2-c1ccc(Cl)cc1 (stereo unspecified),inconclusive: -47.5%
4,CSc1nnc(NC(=O)c2nc(S(=O)(=O)Cc3ccc(C)cc3)ncc2Cl)s1,inconclusive: -49.8%
5,Cc1ccc(NC(=O)NC(=O)CN2CCN(c3ccc(O)cc3)CC2)c(C)c1,active: -65.5%
6,O=C1c2ccccc2C(Nc2ccc3c(c2)OCCO3)N1Cc1ccco1 (stereo unspecified),inconclusive: -51%
7,CC(=O)c1ccc(-n2c(CCC(=O)O)ccc2-c2ccccc2)cc1,inactive: -7.64%
8,COc1ccc(NC(=O)O/N=C/c2c(C)nn(C(C)(C)C)c2C)cc1,active: -70.5%
9,CC(NCC(O)COC1CCC(C(C)(C)C)CC1)c1ccccc1 (stereo unspecified),inconclusive: -33.7%
10,Cc1cc(N2CCCCCC2)nc2ccc(F)cc12,inactive: -16%
11,COc1ccc(CCNC(=O)c2ccccc2NS(=O)(=O)c2cc(C(=O)O)ccc2OC)cc1,inactive: -4.2%
12,O=C(NNC(=O)C1CC(c2cccnc2)=NO1)Nc1cccc(F)c1 (stereo unspecified),inactive: 5.19%
13,Cc1cccc(N=C2NN=C(c3ccc4c(c3)OCCO4)CS2)c1,inconclusive: -50%
14,CC(Nc1ncnc2sccc12)c1ccccc1 (stereo unspecified),active: -80.9%
15,COC(=O)[C@@H]1Cc2c([nH]c3ccccc23)C(C)(C)N1C(=O)CCl,inconclusive: -56.4%
16,Oc1cccc2ccc(Nc3ccccn3)nc12,inconclusive: -53.6%
17,Cc1nn(C(C)C(=O)NCCCc2ccccc2)c(=O)c2cc3occc3n12 (stereo unspecified),inconclusive: -50.7%
18,Oc1ccccc1N1CCN(c2ncnc3sc(-c4ccccc4)cc23)CC1,inconclusive: -50.9%
19,Cc1nc(NC(C)c2ccccc2)sc1C(=O)Nc1ccccc1 (stereo unspecified),active: -86.8%
20,COc1ccc(N2C(=O)c3ccccc3NC23CCCCC3)cc1,inactive: 15.5%
21,O=C1c2ccccc2C(=O)C1c1nccc2ccccc12,inconclusive: -49.5%
22,COC(=O)c1c(C)[nH]c(C)c1-c1cccc([N+](=O)[O-])c1,active: -91.2%
23,Cc1cc(N2CCOCC2)n2ncc(-c3ccccc3)c2n1,active: -60.5%

row,SMILES,"activity change, negative = inhibition"
1,COc1ccc(CCn2c(C)cc(C(=O)CCl)c2C)cc1OC,inconclusive: -55.5%
2,COC(=O)c1nnn(CC(=O)Nc2cc(Cl)ccc2C)c1C(=O)OC,inconclusive: -19%
3,Cc1ccc(Cn2c(=N)n(CC(=O)c3ccccc3)c3ccccc32)cc1,inconclusive: -51.9%
4,NCCCC(=O)O,active: -70.4%
5,c1ccc(-c2nnc3sc(-c4cc5ccccc5o4)nn23)cc1,inactive: -2.61%
6,Cc1ncc([N+](=O)[O-])n1CC(=O)NCCc1ccccc1,active: -62.5%
7,COc1ccc(-c2nc(CSCC(=O)NCc3ccco3)c(C)o2)cc1,inconclusive: -49.4%
8,COc1cccc(CNc2nc3ccccc3n2C(C)C)c1O,inactive: 153%
9,O=C(CN1C(=O)COc2ccc(S(=O)(=O)N3CCCCC3)cc21)NCc1ccccc1Cl,inconclusive: -26.7%
10,c1ccc(-c2noc(-c3ccc4ccccc4c3)n2)nc1,active: -78%
11,O=C(CN1CCCCC1)Nc1cccc2c1OCO2,inconclusive: -68.2%
12,CC1C2(C)OC(=N)C(C#N)(C(C)O2)C1(C#N)C#N (stereo unspecified),inconclusive: -43.4%
13,Cc1ccc(OCC(=O)c2cc(C)n(Cc3cccs3)c2C)c([N+](=O)[O-])n1,inconclusive: -30.2%
14,COc1ccc(/C=N/n2c(-c3n[nH]c4c3CCC4)n[nH]c2=S)c(OC)c1OC,inactive: -4.97%
15,COC(=O)C1=C(C)NC(c2c(O)ccc3ccccc23)C(C(=O)OC)=C1C (stereo unspecified),inconclusive: -45.3%
16,CC(C)c1cc(C(=O)NNC(=S)NC2CCCCC2)cs1,inconclusive: -50.5%
17,O=C(Nc1ccccc1)OCCOc1ccccc1,inconclusive: -49.6%
18,Cc1cc(Cl)ccc1OCC(=O)Nc1nc(-c2cccnc2)cs1,active: -59.6%
19,O=C(c1cccc(S(=O)(=O)N2CCOCC2)c1)N(Cc1nnc(-c2ccccc2Cl)o1)C1CC1,inconclusive: -47.8%
20,CC(C)Sc1nc(SCC(=O)NCc2ccco2)c2c3c(sc2n1)COC(C)(C)C3,inconclusive: -49.6%
21,CCOc1ccc(C(C(=O)NCC2CCCO2)N(Cc2cccs2)C(=O)c2snc(C(N)=O)c2N)cc1 (stereo unspecified),inconclusive: -44.3%
22,CC1CCCN(C(=O)COC(=O)c2ccc(=O)n(Cc3ccccc3)n2)C1 (stereo unspecified),inactive: -2.18%
23,O=C1c2cccc3c([N+](=O)[O-])ccc(c23)C(=O)N1c1ccccn1,active: -67.6%

row,SMILES,"activity change, negative = inhibition"
1,Nc1c(NC(=O)CC[n+]2ccccc2)cccc1[N+](=O)[O-],inconclusive: -47.9%
2,O=C1C(C=Nc2ccccc2)=C(O)c2ccccc21,inactive: 16.6%
3,CC(C)=CCN1CCN(Cc2cc(F)ccc2-n2nc(C)cc2C)CC1CCO (stereo unspecified),inconclusive: -51.2%
4,COc1cc(/C=N/O)ccc1OCc1ccc(C(=O)O)cc1,active: -76.7%
5,CCn1ncc(Br)c1C(=O)Nc1ccc2c(c1)OCCO2,inconclusive: -54.8%
6,N#Cc1cc2cc3c(cc2nc1SCC(=O)N1CCOCC1)OCCO3,inconclusive: -48.8%
7,O=[N+]([O-])c1cc(CN2CCN(c3ccccc3)CC2)c(O)c2ncccc12,inconclusive: -47.3%
8,O=C(C1CCCN(Cc2ccccc2Cl)C1)N1CCCCC1 (stereo unspecified),inactive: -9.93%
9,O=C(Nc1ccccc1)c1cccc(N2C(=O)C3C4CC(C(Br)C4Br)C3C2=O)c1 (stereo unspecified),inactive: 8.7%
10,CNC(=S)Nc1ccc(Br)cc1,inactive: 1.05%
11,N#Cc1c(SCC(=O)Nc2nccs2)nc2c(c1-c1ccco1)CCCC2,inconclusive: -51.2%
12,CN(C)S(=O)(=O)c1ccc(C(=O)OCCCN=C2NS(=O)(=O)c3ccccc32)cc1,active: -66.5%
13,CC1=C(C(=O)OCc2ccccc2)C(c2ccc(-c3ccccc3)cc2)NC(=O)N1CCCC(=O)O (stereo unspecified),inactive: -3.66%
14,Cc1ccccc1NC1=C/C(=N\S(=O)(=O)c2cccs2)c2ccccc2C1=O,active: -94.5%
15,Cc1cc(C)c(S(=O)(=O)/N=C2\C=C(Nc3ccc(C(=O)O)cc3)C(=O)c3ccccc32)c(C)c1,active: -87.4%
16,CCCC(=O)NC(c1ccc(C(C)C)cc1)c1ccc2cccnc2c1O (stereo unspecified),inconclusive: -50.7%
17,S=C(Nc1ccc(Nc2ccccc2)cc1)NN1CCOCC1,inconclusive: -43.3%
18,Cc1onc(-c2ccccc2Cl)c1C(=O)NC1CCS(=O)(=O)C1 (stereo unspecified),inactive: -2.83%
19,CCC(=O)Oc1oc(-c2ccccc2)nc1C=Nc1ccccc1OC,inconclusive: -41.6%
20,CC(C)(C)OC(=O)C1C(=O)CC(C)(O)C(C(=O)OC(C)(C)C)C1c1cccnc1 (stereo unspecified),inconclusive: -51.1%
21,COc1cc(/C=N/NC(=O)c2cncc(Br)c2)cc([N+](=O)[O-])c1O,inconclusive: -50.4%
22,Cc1cccn2c(=O)c(C=O)c(N3CCN(C)CC3)nc12,inactive: -3.3%
23,Cc1cc(N)n(-c2nc3ccccc3s2)n1,inconclusive: -16.8%

# Of the compounds above, these contain a nitro group on carbon:
row,SMILES,"activity change, negative = inhibition"
22,COC(=O)c1c(C)[nH]c(C)c1-c1cccc([N+](=O)[O-])c1,active: -91.2%
6,Cc1ncc([N+](=O)[O-])n1CC(=O)NCCc1ccccc1,active: -62.5%
13,Cc1ccc(OCC(=O)c2cc(C)n(Cc3cccs3)c2C)c([N+](=O)[O-])n1,inconclusive: -30.2%
23,O=C1c2cccc3c([N+](=O)[O-])ccc(c23)C(=O)N1c1ccccn1,active: -67.6%
1,Nc1c(NC(=O)CC[n+]2ccccc2)cccc1[N+](=O)[O-],inconclusive: -47.9%
7,O=[N+]([O-])c1cc(CN2CCN(c3ccccc3)CC2)c(O)c2ncccc12,inconclusive: -47.3%
21,COc1cc(/C=N/NC(=O)c2cncc(Br)c2)cc([N+](=O)[O-])c1O,inconclusive: -50.4%

# Next part.

row,SMILES,"activity change, negative = inhibition"
1,CN(C(=O)COC(=O)c1nc(Cl)c(Cl)c(Cl)c1Cl)C1CCS(=O)(=O)C1 (stereo unspecified),inconclusive: -32.6%
2,CC(C)C(=O)Nc1cccc(-c2nc3ncccc3o2)c1,inconclusive: -54.3%
3,Cc1cc(S(=O)(=O)N2CCCCC2CCNC(=O)C(=O)NC2CC2)ccc1F (stereo unspecified),inconclusive: -50.1%
4,CN(Cc1ccccc1)C(=O)CCS(=O)(=O)c1ccc2c(c1)n(C)c(=O)c(=O)n2C,inconclusive: -51.8%
5,CCOc1ccccc1NC(=O)c1nc(S(=O)(=O)Cc2cccc(C)c2)ncc1Cl,inconclusive: -27.1%
6,NC(=O)CN1C(=O)NC2(CCOc3ccccc32)C1=O (stereo unspecified),inconclusive: -24.5%
7,CCN(CC)C(=O)c1cc2cc([N+](=O)[O-])ccc2s1,inconclusive: -47.7%
8,CCC(CC)N=C1NS(=O)(=O)c2cc([N+](=O)[O-])ccc21,inactive: 15.8%
9,CCc1nnc(N/N=C\c2ccc(OC(C)=O)c(OC)c2)n1N,inconclusive: -59.6%
10,CC1(C)C=C2C(=NN(c3ccccc3)C(N)=C2C#N)CO1,active: -70.9%
11,O=C(Nc1ccc(N2CCOCC2)nc1)c1ccccc1Cl,inactive: 10.9%
12,CC(C)n1cnc2cc(NCc3ccco3)ccc21,inconclusive: -40.6%
13,NC1=NC[C@H](Cc2ccccc2)N1CCCCC1CCCCC1,inactive: 0.3%
14,CN1CCN(C(=O)/C=C/c2ccc(C#N)cc2)CC1,inactive: 1.83%
15,CC(C)(C)C(=O)N1CCc2cc(-c3csc(N)n3)ccc21,inconclusive: -49.9%
16,COCCn1c(C)cc(C(=O)COC(=O)c2ccc(NC(=O)CC#N)cc2)c1C,inconclusive: -49%
17,CCc1ccc(NC(=O)c2nc(S(=O)(=O)Cc3ccccc3)ncc2Cl)cc1,inconclusive: -61.7%
18,O=C(COc1cccnc1[N+](=O)[O-])Nc1cc(S(=O)(=O)N2CCCCC2)ccc1Cl,inconclusive: -49.6%
19,O=C(CCCCCCC(=O)Nc1ccccc1)NO,inconclusive: -49.4%
20,O=C(CNC(=O)c1cccnc1)N/N=C/c1cc(Br)c(O)c(Br)c1,inconclusive: -50.7%
21,Cn1c(=O)n(C)c2cc(NS(C)(=O)=O)ccc21,inconclusive: -49.8%
22,O=C(c1ccc(C(F)(F)F)cc1)N1CCC(=O)N(C(COCc2ccccc2)Cc2ccccc2)CC1 (stereo unspecified),inactive: 7.08%
